{
  "source": "paper PMC12040169",
  "about": "(PLOS Biology, 2025)",
  "note": "This is one part of the list.",
  "data": [
    {"system": "T1, CTL2-GFP (C. trachomatis L2/434/Bu, GFP-expressing)", "T1 construct": "L2/434/Bu, GFP-expressing", "set-up": "species or system HeLa; Intracellular C. trachomatis growth in HeLa cells, bulk GFP fluorescence relative to DMSO", "settings": "bulk GFP, single well; 28.5 h, 10 µM; inhibitor", "units": {"% of control remaining": "%"}, "values": [
      {"smiles": "CC1=NN(c2nc(-c3cccc([N+](=O)[O-])c3)cs2)C(=O)C1/N=N/c1ccc(S(N)(=O)=O)cc1", "note": "(stereo not drawn) [CBK262434]", "% of control remaining": 128.507},
      {"smiles": "Cc1ccc2c(c1)OC(C)(C)CC2NS(C)(=O)=O", "note": "(stereo not drawn) [CBK307620]", "% of control remaining": 133.099},
      {"smiles": "CN(C)CCCNC(=O)c1ccc(/C=N/O)[n+](C)c1", "note": "[CBK278284I]", "% of control remaining": 100},
      {"smiles": "CCCN1CCC(N2CCN(c3ccc([N+](=O)[O-])cc3)CC2)CC1", "note": "[CBK018459]", "% of control remaining": 105.71},
      {"smiles": "Cc1oc2cc(OCC(=O)NCC(=O)O)ccc2c(=O)c1-c1ccc(Cl)cc1", "note": "[CBK286697]", "% of control remaining": 112.633},
      {"smiles": "CC(C)(C)c1ccc(NC(=O)N(CCN)Cc2c[nH]c(-c3ccccc3)n2)cc1", "note": "[CBK046297C]", "% of control remaining": 20.8611},
      {"smiles": "C[C@@H]1C(=O)O[C@H]2[C@H]1CC[C@@]1(C)Cc3sc(NC(=O)CCC(=O)O)nc3[C@@H](C)[C@H]21", "note": "[CBK289429]", "% of control remaining": 117.67},
      {"smiles": "CCn1nc(CC(C)C)cc1C(=O)NCCc1cn2cccnc2n1", "note": "[CBK306553]", "% of control remaining": 142.96},
      {"smiles": "Cc1cc(C)n(C(CC(=O)N2CCCCC2)C(=O)O)n1", "note": "(stereo not drawn) [CBK286806]", "% of control remaining": 135.694},
      {"smiles": "Cc1cc(OCC(O)CN2CCN(CCO)CC2)ccc1C(C)C", "note": "(stereo not drawn) [CBK278254C]", "% of control remaining": 125.714},
      {"smiles": "CCOc1ccc(S(=O)(=O)NCCOC)cc1Cl", "note": "[CBK270251]", "% of control remaining": 146.596},
      {"smiles": "Fc1ccc(-c2cc(Nc3ccccc3)ncn2)cc1F", "note": "[CBK090913]", "% of control remaining": 99.9828},
      {"smiles": "CN1CCCN(C(=O)c2ccc(-c3nc(-c4ccc(C#N)cc4)cnc3N)cc2)CC1", "note": "[CBK107140]", "% of control remaining": 76.3373},
      {"smiles": "N#CCCn1cc(C(N)=O)c(-c2cc3ccccc3o2)n1", "note": "[CBK306204]", "% of control remaining": 102.962},
      {"smiles": "O=C(NC(c1ccccc1)c1ccccc1)C1(c2ccccc2)CCCC1", "note": "[CBK149536]", "% of control remaining": 114.378},
      {"smiles": "Cc1ccc(S(=O)(=O)NCCn2nc(C)c(C)c2C)s1", "note": "[CBK281502]", "% of control remaining": 157.748},
      {"smiles": "Cc1nonc1NC(=O)CSc1nc2ccccc2[nH]1", "note": "[CBK269273]", "% of control remaining": 104.745},
      {"smiles": "Fc1ccccc1CCOc1cncc(Cl)n1", "note": "[CBK176038]", "% of control remaining": 109.44},
      {"smiles": "N=c1n(CCCOc2ccccc2Cl)c2ccccc2n1CC(N)=O", "note": "[CBK268927C]", "% of control remaining": 106.098},
      {"smiles": "CS(=O)(=O)Nc1ccc(-c2cc(F)cc(F)c2)c2ccccc12", "note": "[CBK083743]", "% of control remaining": 107.164},
      {"smiles": "COC(=O)c1ccccc1N1C(=O)c2cccc([N+](=O)[O-])c2C1=O", "note": "[CBK115382]", "% of control remaining": 116.657},
      {"smiles": "CCOc1ccc2[nH]c(C(=O)NC3CCCOC3)c(C)c2c1", "note": "(stereo not drawn) [CBK282529]", "% of control remaining": 120.618},
      {"smiles": "N=C1OC2CSCC2N1C(=O)C1(c2ccccc2)CC1", "note": "(stereo not drawn) [CBK284524]", "% of control remaining": 169.453},
      {"smiles": "O=C1COc2ccccc2CCCCC2(CCCN(CC(=O)N3CCCC3)C2)CN1", "note": "(stereo not drawn) [CBK292009]", "% of control remaining": 132.116},
      {"smiles": "Cc1ccn(CCNC(=O)C(C)Cc2cccs2)n1", "note": "(stereo not drawn) [CBK281625]", "% of control remaining": 96.268},
      {"smiles": "COc1cc(-c2cncc(Nc3ccc4c(c3)OC(F)(F)C(F)(F)O4)n2)cc(OC)c1OC", "note": "[CBK065138]", "% of control remaining": 123.218},
      {"smiles": "Cn1ccnc1C1(O)CC2CCC(C1)N2C(=O)NCc1ccccc1", "note": "(stereo not drawn) [CBK284050]", "% of control remaining": 140.264},
      {"smiles": "c1ccc(COc2ccccc2CNCCN2CCOCC2)cc1", "note": "[CBK278212C]", "% of control remaining": 140.023},
      {"smiles": "FC(F)(F)c1ccccc1/C=N/n1c(S)nnc1COc1ccccc1", "note": "[CBK265260]", "% of control remaining": 123.486},
      {"smiles": "OCCN(CCO)c1cncc(-c2ccc(Cl)cc2)n1", "note": "[CBK065748]", "% of control remaining": 173.228},
      {"smiles": "O=C(O)c1cc(Nc2nc(N3CCOCC3)nc(N3CCOCC3)n2)ccc1Cl", "note": "[CBK268081]", "% of control remaining": 105.304},
      {"smiles": "Cc1nc(NCc2ccc(C(F)(F)F)cc2)nc(N2CCN(C)CC2)n1", "note": "[CBK023866]", "% of control remaining": 108.448},
      {"smiles": "CN(CC#CCN1CCCC1)C(=O)CNC(=O)OC(C)(C)C", "note": "[CBK007489]", "% of control remaining": 104.322},
      {"smiles": "Cc1cn(C(C)(C)C(=O)N2CCOCC2)nc1-c1ccccc1Cl", "note": "[CBK005206]", "% of control remaining": 142.48},
      {"smiles": "O=C(O)C1CC=CCC1C(=O)NCc1ccc2c(c1)OCO2", "note": "(stereo not drawn) [CBK264209]", "% of control remaining": 131.219},
      {"smiles": "Cc1cc(=O)oc2cc(OCC(=O)Nc3cccc(C(=O)O)c3)ccc12", "note": "[CBK287058]", "% of control remaining": 139.944},
      {"smiles": "Cc1ccc2nc(CNC(=O)CN(C)C3CCNCC3)cn2c1", "note": "[CBK307228]", "% of control remaining": 84.5703},
      {"smiles": "COc1ccc(SCC(=O)Nc2nccs2)cc1", "note": "[CBK287751]", "% of control remaining": 132.54},
      {"smiles": "N#CC(C(=O)NC1CCCCC1)C(=O)c1nn(-c2ccccc2)c2c1CSc1ccccc1-2", "note": "(stereo not drawn) [CBK017690]", "% of control remaining": 109.275}
    ]}
  ]
}
